These are yes or no findings as the source states them, for the method shown. In cells and extracts the contact can be indirect.
Assays:
[1] = target: mutant p53 R249S, endogenous in BT-549 cells (human (endogenous in BT-549)) (UniProt P04637); test: co-IP
[2] = target: mutant p53 V157F, endogenous in HS578T cells (human (endogenous in HS578T)) (UniProt P04637); test: co-IP

Binder	binding [1]	binding [2]
PITP cytoplasmic 1 (PITPNC1), endogenous (protein, UniProt Q9UKF7 1-332) MLLKEYRICMPLTVDEYKIGQLYMISKHSHEQSDRGEGVEVVQNEPFEDPHHGNGQFTEKRVYLNSKLPSWARAVVPKIFYVTEKAWNYYPYTITEYTCSFLPKFSIHIETKYEDNKGSNDTIFDNEAKDVEREVCFIDIACDEIPERYYKESEDPKHFKSEKTGRGQLREGWRDSHQPIMCSYKLVTVKFEVWGLQTRVEQFVHKVVRDILLIGHRQAFAWVDEWYDMTMDEVREFERATQEATNKKIGIFPPAISISSIPLLPSSVRSAPSSAPSTPLSTDAPEFLSVPKDRPRKKSAPETLTLPDPEKKATLNLPGMHSSDKPCRPKSE	no binding	no binding
PITP membrane associated 1 (PITPNM1), endogenous (protein, UniProt O00562 1-1244) MLIKEYHILLPMSLDEYQVAQLYMIQKKSREESSGEGSGVEILANRPYTDGPGGSGQYTHKVYHVGSHIPGWFRALLPKAALQVEEESWNAYPYTRTRYTCPFVEKFSIEIETYYLPDGGQQPNVFNLSGAERRQRILDTIDIVRDAVAPGEYKAEEDPRLYHSVKTGRGPLSDDWARTAAQTGPLMCAYKLCKVEFRYWGMQAKIEQFIHDVGLRRVMLRAHRQAWCWQDEWTELSMADIRALEEETARMLAQRMAKCNTGSEGSEAQPPGKPSTEARSAASNTGTPDGPEAPPGPDASPDASFGKQWSSSSRSSYSSQHGGAVSPQSLSEWRMQNIARDSENSSEEEFFDAHEGFSDSEEVFPKEMTKWNSNDFIDAFASPVEAEGTPEPGAEAAKGIEDGAQAPRDSEGLDGAGELGAEACAVHALFLILHSGNILDSGPGDANSKQADVQTLSSAFEAVTRIHFPEALGHVALRLVPCPPICAAAYALVSNLSPYSHDGDSLSRSQDHIPLAALPLLATSSSRYQGAVATVIARTNQAYSAFLRSPEGAGFCGQVALIGDGVGGILGFDALCHSANAGTGSRGSSRRGSMNNELLSPEFGPVRDPLADGVEGLGRGSPEPSALPPQRIPSDMASPEPEGSQNSLQAAPATTSSWEPRRASTAFCPPAASSEAPDGPSSTARLDFKVSGFFLFGSPLGLVLALRKTVMPALEAAQMRPACEQIYNLFHAADPCASRLEPLLAPKFQAIAPLTVPRYQKFPLGDGSSLLLADTLQTHSSLFLEELEMLVPSTPTSTSGAFWKGSELATDPPAQPAAPSTTSEVVKILERWWGTKRIDYSLYCPEALTAFPTVTLPHLFHASYWESADVVAFILRQVIEKERPQLAECEEPSIYSPAFPREKWQRKRTQVKIRNVTSNHRASDTVVCEGRPQVLSGRFMYGPLDVVTLTGEKVDVYIMTQPLSGKWIHFGTEVTNSSGRLTFPVPPERALGIGVYPVRMVVRGDHTYAECCLTVVARGTEAVVFSIDGSFTASVSIMGSDPKVRAGAVDVVRHWQDSGYLIVYVTGRPDMQKHRVVAWLSQHNFPHGVVSFCDGLTHDPLRQKAMFLQSLVQEVELNIVAGYGSPKDVAVYAALGLSPSQTYIVGRAVRKLQAQCQFLSDGYVAHLGQLEAGSHSHASSGPPRAALGKSSYGVAAPVDFLRKQSQLLRSRGPSQAEREGPGTPPTTLARGKARSISLKLDSEE	no binding	no binding
PITP membrane associated 2 (PITPNM2), endogenous (protein, UniProt Q9BZ72 1-1349) MIIKEYRIPLPMTVEEYRIAQLYMIQKKSRNETYGEGSGVEILENRPYTDGPGGSGQYTHKVYHVGMHIPSWFRSILPKAALRVVEESWNAYPYTRTRFTCPFVEKFSIDIETFYKTDAGENPDVFNLSPVEKNQLTIDFIDIVKDPVPHNEYKTEEDPKLFQSTKTQRGPLSENWIEEYKKQVFPIMCAYKLCKVEFRYWGMQSKIERFIHDTGLRRVMVRAHRQAWCWQDEWYGLSMENIRELEKEAQLMLSRKMAQFNEDGEEATELVKHEAVSDQTSGEPPEPSSSNGEPLVGRGLKKQWSTSSKSSRSSKRGASPSRHSISEWRMQSIARDSDESSDDEFFDAHEDLSDTEEMFPKDITKWSSNDLMDKIESPEPEDTQDGLYRQGAPEFRVASSVEQLNIIEDEVSQPLAAPPSKIHVLLLVLHGGTILDTGAGDPSSKKGDANTIANVFDTVMRVHYPSALGRLAIRLVPCPPVCSDAFALVSNLSPYSHDEGCLSSSQDHIPLAALPLLATSSPQYQEAVATVIQRANLAYGDFIKSQEGMTFNGQVCLIGDCVGGILAFDALCYSNQPVSESQSSSRRGSVVSMQDNDLLSPGILMNAAHCCGGGGGGGGGGGSSGGGGSSGGSSLESSRHLSRSNVDIPRSNGTEDPKRQLPRKRSDSSTYELDTIQQHQAFLSSLHASVLRTEPCSRHSSSSTMLDGTGALGRFDFEITDLFLFGCPLGLVLALRKTVIPALDVFQLRPACQQVYNLFHPADPSASRLEPLLERRFHALPPFSVPRYQRYPLGDGCSTLLADVLQTHNAAFQEHGAPSSPGTAPASRGFRRASEISIASQVSGMAESYTASSIAQKAPDALSHTPSVRRLSLLALPAPSPTTPGPHPPARKASPGLERAPGLPELDIGEVAAKWWGQKRIDYALYCPDALTAFPTVALPHLFHASYWESTDVVSFLLRQVMRHDNSSILELDGKEVSVFTPSKPREKWQRKRTHVKLRNVTANHRINDALANEDGPQVLTGRFMYGPLDMVTLTGEKVDVHIMTQPPSGEWLYLDTLVTNNSGRVSYTIPESHRLGVGVYPIKMVVRGDHTFADSYITVLPKGTEFVVFSIDGSFAASVSIMGSDPKVRAGAVDVVRHWQDLGYLIIYVTGRPDMQKQRVVAWLAQHNFPHGVVSFCDGLVHDPLRHKANFLKLLISELHLRVHAAYGSTKDVAVYSAISLSPMQIYIVGRPTKKLQQQCQFITDGYAAHLAQLKYSHRARPARNTATRMALRKGSFGLPGQGDFLRSRNHLLRTISAQPSGPSHRHERTQSQADGEQRGQRSMSVAAGCWGRAMTGRLEPGAAAGPK	no binding	no binding

— paper doi:10.1101/2023.05.08.539894
